Data published in patent publication US20250000942A1, “PEPTIDES AND METHODS OF TRANSPLANTATION AND RESTORATIVE ORGAN FUNCTION” (Prince Biotech, LLC, priority 2017, published 2025).
At least one structure is not confirmed: it was looked up by name or label, or the drawing left a doubt.

Tested on: JEG-3 cells
Assay: Influence of PIF and P4 on expression of HLA class I molecules (flow cytometry, Western blotting, surface antigen quantification)
Type: cell-based, human
Conditions: 1 μg/ml, 24 hours

C[C@@H]1C[C@H]2[C@@H]3CCC4=CC(=O)C=C[C@]4(C)[C@@]3(F)[C@@H](O)C[C@]2(C)[C@@]1(O)C(=O)CO [Dexa, Dexamethasone]
HLA-G expression, dexamethasone alone: promote HLA-G
